Reference: publication PMC11672271
These are yes or no findings as the source states them, for the method shown. Binding seen in cells or lysates may run through a third protein. These calls come from enrichment with a bait or labelling near it, and not all partners need be listed.

Target: Myc-tagged STAT3 (bait of the mass spectrometry experiment), P42227
Experiment: affinity purification with mass spectrometry; Myc-STAT3 transfected into cells (mESC or HEK-293T), LIF-treated; c-Myc Tag IP/Co-IP kit, 10% SDS-PAGE, Coomassie, in-gel trypsin digestion of unique bands, ion-trap MS/MS
Settings: remark: other sources report otherwise

B1: protein kinase C delta (PKCδ), P28867 1-674 (protein)
chain: MAPFLRISFNSYELGSLQVEDEASQPFCAVKMKEALSTERGKTLVQKKPTMYPEWKTTFDAHIYEGRVIQIVLMRAAEDPVSEVTVGVSVLAERCKKNNGKAEFWLDLQPQAKVLMCVQYFLEDGDCKQSMRSEEEAKFPTMNRRGAIKQAKIHYIKNHEFIATFFGQPTFCSVCKEFVWGLNKQGYKCRQCNAAIHKKCIDKIIGRCTGTATNSRDTIFQKERFNIDMPHRFKVYNYMSPTFCDHCGSLLWGLVKQGLKCEDCGMNVHHKCREKVANLCGINQKLLAEALNQVTQRSSRKLDTTESVGIYQGFEKKPEVSGSDILDNNGTYGKIWEGSTRCTLENFTFQKVLGKGSFGKVLLAELKGKDKYFAIKCLKKDVVLIDDDVECTMVEKRVLALAWESPFLTHLICTFQTKDHLFFVMEFLNGGDLMFHIQDKGRFELYRATFYAAEIICGLQFLHSKGIIYRDLKLDNVMLDRDGHIKIADFGMCKENIFGEGRASTFCGTPDYIAPEILQGLKYSFSVDWWSFGVLLYEMLIGQSPFHGDDEDELFESIRVDTPHYPRWITKESKDIMEKLFERDPDKRLGVTGNIRIHPFFKTINWSLLEKRKVEPPFKPKVKSPSDYSNFDPEFLNEKPQLSFSDKNLIDSMDQEAFHGFSFVNPKFEQFLDI
  binding: binds
